Assay results: patent US9164086B2, “Fluorescent dyes with phosphorylated hydroxymethyl groups and their use in light microscopy and imaging techniques” (Max-Planck-Gesellschaft zur Foerderung der Wissenschaften …, priority 2011, dated 2015)

What was measured:
[1] = tested on: antibodies; assay: Degree of labeling of antibody conjugates; details: antibody conjugate obtained from the dye or its NHS ester
[2] = tested on: vimentin and tubulin filaments in a fixed mammalian PtK2 cell; assay: Two-colour confocal/STED microscopy, FIG. 1 and 2; set-up: species or system Potorous tridactylus; details: single antibodies in the background, FIG. 2; for STED resolution: STED at 590 nm
[3] = tested on: tubulin filaments in a fixed PtK2 cell; assay: Confocal/STED microscopy of tubulin filaments, FIG. 3; set-up: species or system Potorous tridactylus
[4] = tested on: vimentin filaments in a fixed PtK2 cell; assay: Confocal/STED microscopy of vimentin filaments, FIG. 4; set-up: species or system Potorous tridactylus

Row | Compound | degree of labeling (DOL) of the conjugate [1] | Confocal resolution [2] [nm] | STED resolution [2] | further results
1 | CC1(C)C=C(COP(=O)(O)O)c2cc3cc(-c4ccncc4)c(=O)oc3cc2N1CCCC(=O)ON1C(=O)CCC1=O [Compound 12] | 2.6 | ~200 | ~50 nm | 
2 | CN(CCCC(=O)O)C(=O)c1c(F)c(F)c(F)c(F)c1C1=c2cc3c4c(c2Oc2c1cc1c5c2CCCN5C(C)(C)C=C1COP(=O)(O)O)CCC[N+]=4C(C)(C)C=C3COP(=O)([O-])O [Compound 26-H] | ~2.5 |  |  | 
3 | CN(CCCC(=O)ON1C(=O)CCC1=O)C(=O)c1c(F)c(F)c(F)c(F)c1C1=c2cc3c4c(c2Oc2c1cc1c5c2CCCN5C(C)(C)C=C1COP(=O)(O)O)CCC[N+]=4C(C)(C)C=C3COP(=O)([O-])O [Compound 26-NHS] |  |  |  | optical resolution, confocal ([3]; FIG. 3A inset left, excitation 635 nm): ~300 nm; optical resolution, STED ([3]; FIG. 3A inset right, pulsed STED at 750 nm, ~350 mW): 30 nm; optical resolution, confocal ([4]; excitation 647±5 nm): 250 nm; optical resolution, STED ([4]; pulsed STED at 745±2 nm, ~30 mW): 50 nm
4 | CC1(C)C=C(CS(=O)(=O)O)c2cc3cc(-c4ccncc4)c(=O)oc3cc2N1CCCC(=O)ON1C(=O)CCC1=O [Compound 20-NHS, reference compound] | 2.7 |  |  | 
5 | CC1(C)C=C(COP(=O)(O)O)c2cc3cc(-c4ccncc4)c(=O)oc3cc2N1CCCC(=O)O [Compound 11] |  |  | ca. 50 nm | 
6 | O=C1OC2(c3cc(F)c(O)cc3Oc3cc(O)c(F)cc32)c2ccccc21 [Oregon Green™ 488, reference compound] |  | ~200 | ~50 nm | 
